Laboratory results as given in paper PMC6114981.
Like-named read-outs stand apart in the source and are kept apart here. No constants are given. Whether binding was seen depends on the method and setting. In cells and extracts the contact can be indirect. For part of these data: Binding calls can cover weak binding; strength is not graded here. Values belong to the molecule of their own block, whether it stands above or below them.

The chains behind the UniProt entries cited, without tags or fusion partners. Where a name states a change or a piece, a line headed by the entry shows the natural chain unless it says otherwise.
UniProt P11474: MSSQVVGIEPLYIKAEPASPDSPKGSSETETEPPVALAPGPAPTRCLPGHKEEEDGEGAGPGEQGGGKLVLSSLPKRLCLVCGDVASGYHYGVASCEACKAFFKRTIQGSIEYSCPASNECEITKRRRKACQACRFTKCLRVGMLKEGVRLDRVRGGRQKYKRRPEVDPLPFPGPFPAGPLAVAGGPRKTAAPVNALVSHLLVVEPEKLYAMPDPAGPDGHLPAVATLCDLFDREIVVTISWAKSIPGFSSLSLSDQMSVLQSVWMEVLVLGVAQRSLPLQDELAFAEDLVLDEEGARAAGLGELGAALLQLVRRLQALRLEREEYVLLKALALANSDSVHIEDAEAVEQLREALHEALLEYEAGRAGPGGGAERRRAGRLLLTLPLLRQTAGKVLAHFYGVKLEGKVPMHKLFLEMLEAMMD
UniProt Q01469: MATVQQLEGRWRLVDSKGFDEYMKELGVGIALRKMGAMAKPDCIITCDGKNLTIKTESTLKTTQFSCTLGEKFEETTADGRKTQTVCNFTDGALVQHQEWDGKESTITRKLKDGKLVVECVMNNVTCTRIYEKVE

How the values were obtained:
Test in all cases: pull-down; GST or GST-ERRα (wt, Δ300aa, Δ398aa) incubated with PC-3 whole cell lysates and glutathione sepharose overnight at 4°C; washed three times with 50 mM Tris-HCl pH 7.5, 150 mM NaCl, 0.05% Tween20; western blot for GST, FABP5 and PGC-1β; only the target purified
[1] = target: GST-ERRα Δ398aa (deletion mutant lacking the activation function 2 domain) (human) (UniProt P11474)
[2] = target: GST-ERRα Δ300aa (deletion mutant lacking the ligand-binding domain) (human) (UniProt P11474)
[3] = target: GST-ERRα Δ300aa (deletion mutant lacking the ligand-binding domain) (human) (UniProt P11474); remark: listed apart in the source

- binding [1]: binds weakly
- binding [2]: no binding
Molecule: fatty acid-binding protein 5 (FABP5), endogenous in PC-3 cells (from UniProt Q01469 1-135)

- binding [3]: no binding
B1: peroxisome proliferator-activated receptor gamma coactivator 1-beta (PGC-1β), endogenous in PC-3 cells (protein, UniProt Q86YN6 1-1023)
chain: MAGNDCGALLDEELSSFFLNYLADTQGGGSGEEQLYADFPELDLSQLDASDFDSATCFGELQWCPENSETEPNQYSPDDSELFQIDSENEALLAELTKTLDDIPEDDVGLAAFPALDGGDALSCTSASPAPSSAPPSPAPEKPSAPAPEVDELSLLQKLLLATSYPTSSSDTQKEGTAWRQAGLRSKSQRPCVKADSTQDKKAPMMQSQSRSCTELHKHLTSAQCCLQDRGLQPPCLQSPRLPAKEDKEPGEDCPSPQPAPASPRDSLALGRADPGAPVSQEDMQAMVQLIRYMHTYCLPQRKLPPQTPEPLPKACSNPSQQVRSRPWSRHHSKASWAEFSILRELLAQDVLCDVSKPYRLATPVYASLTPRSRPRPPKDSQASPGRPSSVEEVRIAASPKSTGPRPSLRPLRLEVKREVRRPARLQQQEEEDEEEEEEEEEEEKEEEEEWGRKRPGRGLPWTKLGRKLESSVCPVRRSRRLNPELGPWLTFADEPLVPSEPQGALPSLCLAPKAYDVERELGSPTDEDSGQDQQLLRGPQIPALESPCESGCGDMDEDPSCPQLPPRDSPRCLMLALSQSDPTFGKKSFEQTLTVELCGTAGLTPPTTPPYKPTEEDPFKPDIKHSLGKEIALSLPSPEGLSLKATPGAAHKLPKKHPERSELLSHLRHATAQPASQAGQKRPFSCSFGDHDYCQVLRPEGVLQRKVLRSWEPSGVHLEDWPQQGAPWAEAQAPGREEDRSCDAGAPPKDSTLLRDHEIRASLTKHFGLLETALEEEDLASCKSPEYDTVFEDSSSSSGESSFLPEEEEEEGEEEEEDDEEEDSGVSPTCSDHCPYQSPPSKANRQLCSRSRSSSGSSPCHSWSPATRRNFRCESRGPCSDRTPSIRHARKRREKAIGEGRVVYIQNLSSDMSSRELKRRFEVFGEIEECEVLTRNRRGEKYGFITYRCSEHAALSLTKGAALRKRNEPSFQLSYGGLRHFCWPRYTDYDSNSEEALPASGKSKYEAMDFDSLLKEAQQSLH
